Primary screen of a compound library

Mtb growth Cornell: 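Whole-cell assay for inhibitors of Mycobacterium tuberculosis growth, labelled Cornell in the record; the read-out is not stated. The concentration is filed as 10 mM, unlikely as a test dose, so the dose is not known. The record gives no direction; compounds strong in two other growth screens of this library score well above the rest, so higher reads as stronger inhibition. About 53,000 compounds were tested under these conditions; 1.7% (about 900) showed 50% or more at least once.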
Mtb heat-shock: 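Assay on Mycobacterium tuberculosis, filed only as a heat shock assay from Cornell; the read-out is not stated. The concentration is filed as 10 mM, unlikely as a test dose, so the dose is not known. The record gives no direction; compounds that gave an IC50 in retests scored well above the rest, so higher reads as stronger inhibition. About 69,000 compounds were tested under these conditions; 1.4% (about 930) showed 50% or more at least once.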

Results are given as percent effect.
How 0% and 100% were set is not recorded. Most values in the screen are low, and negative values occur.
Compounds were drawn at random from those tested, without regard to their results.
A dash means the value is not listed here; it may have been measured.

{"structure": "OC(COc1ccc2c(c1)OCO2)CN1CC(n2cccn2)C1", "stereo": "centres undefined", "Mtb growth Cornell": 36.42, "Mtb heat-shock": -13.79}
{"structure": "Cc1ccccc1[C@@H]1CN(C(=O)c2ccc3[nH]nnc3c2)C[C@H]1C(=O)O", "Mtb growth Cornell": 40.93, "Mtb heat-shock": -5.68}
{"structure": "O=c1c2ccc(Cl)cc2ncn1CCCN1CCCCC1CO", "stereo": "centres undefined", "Mtb growth Cornell": 22.48, "Mtb heat-shock": -3.605}
{"structure": "COc1c(Cl)cc(C(=O)NCCNc2ncccn2)cc1Cl", "Mtb growth Cornell": -9.706, "Mtb heat-shock": -11.96}
{"structure": "O=C(Cn1cc(C2CC2)nn1)NC(c1cc(F)ccc1F)C1CC1", "stereo": "centres undefined", "Mtb growth Cornell": -1.995, "Mtb heat-shock": 1.09}
{"structure": "CCn1cc(CN(C)c2nc(C)c3ccc(S(C)(=O)=O)cc3n2)cn1", "Mtb growth Cornell": 9.526, "Mtb heat-shock": 1.289}
{"structure": "CCNC(=O)[C@@H]1C[C@H](N)CN1C(=O)c1c[nH]c2ccccc12", "Mtb heat-shock": 4.082}
{"structure": "Cc1nn(C)c2ncnc(N3CCCC(OCc4cccnc4)C3)c12", "stereo": "centres undefined", "Mtb growth Cornell": 11.45, "Mtb heat-shock": -33.95}
{"structure": "COCCN(Cc1ccc(C)cc1)Cc1nccn1C", "Mtb growth Cornell": -2.502, "Mtb heat-shock": -5.321}
{"structure": "O=C(O)C(F)(F)F.[H][C@@]12COC[C@]1(COc1ccccn1)CN(S(=O)(=O)N(C)C)C2", "Mtb growth Cornell": 28.02, "Mtb heat-shock": -1.35}
{"structure": "Cc1csc(N2CCN(C(=O)c3cc(Cl)c[nH]3)CC2)n1", "Mtb growth Cornell": 17.35, "Mtb heat-shock": 17.22}
{"structure": "CS(=O)(=O)Cc1ccc(CNc2ncc(C#N)cc2Cl)cc1", "Mtb heat-shock": 5.53}
{"structure": "O=C(NCc1cccnc1-n1cncn1)c1ccc2c(c1)CCO2", "Mtb heat-shock": -18.19}
{"structure": "COc1ccccc1NCC(=O)NCc1scnc1C", "Mtb growth Cornell": 3.418, "Mtb heat-shock": 0.8881}
{"structure": "Cc1ccc(F)cc1S(=O)(=O)N(C)CC(N)=O", "Mtb growth Cornell": -3.113, "Mtb heat-shock": 5.257}
{"structure": "O=C(O)[C@@H]1CN(C(=O)NCC2CCCCC2)C[C@H]1c1ccccn1", "Mtb growth Cornell": -12.94, "Mtb heat-shock": -29.79}
{"structure": "Cc1cc2cc(C(=O)N[C@@H]3CC[C@@H](N4CCCC4)[C@@H]3O)ccc2o1", "Mtb heat-shock": -18.56}
{"structure": "NCC1Cc2cccc(-c3nccc(N4CCC(O)CC4)n3)c2O1", "stereo": "centres undefined", "Mtb growth Cornell": -17.46, "Mtb heat-shock": -29.94}
{"structure": "Cc1cccc(-c2noc([C@@H]3C[C@@H](O)CN3C3CCOCC3)n2)c1", "Mtb growth Cornell": 15.25, "Mtb heat-shock": -23.26}
{"structure": "O=C(O)C(F)(F)F.[H][C@@]12CCCO[C@]1([H])[C@H](N(CC)CC)CN2C(=O)c1ccnnc1", "Mtb growth Cornell": 21.75, "Mtb heat-shock": -25.13}
{"structure": "CN(Cc1cccc(O)c1)CC1CCCN(CCc2ccc(Cl)cc2)C1", "stereo": "centres undefined", "Mtb growth Cornell": 33.12, "Mtb heat-shock": 33.06}
{"structure": "[H][C@@]12CN(c3ccc(C)nn3)C[C@H](C(=O)N3CCOCC3)[C@]1([H])CCO2", "Mtb growth Cornell": 27.91, "Mtb heat-shock": -2.276}
{"structure": "Cc1nc2c(c(=O)[nH]1)CN(C(=O)CCC1CCCN(C)C1)C2", "stereo": "centres undefined", "Mtb heat-shock": 11.27}
{"structure": "CC(C(=O)N1CCN(c2ccccc2Cl)CC1)n1cncn1", "stereo": "centres undefined", "Mtb heat-shock": 5.189}
{"structure": "CCOc1ccccc1N1CCN(c2nnc(C)o2)CC1", "Mtb growth Cornell": 2.29, "Mtb heat-shock": 8.179}
{"structure": "CS(=O)(=O)N1CCC(C(=O)NC(Cc2ccsc2)c2cccnc2)CC1", "stereo": "centres undefined", "Mtb growth Cornell": -34.95, "Mtb heat-shock": 23.88}
{"structure": "c1cnnc(N2CCCC(NCc3nc(-c4ccsc4)no3)C2)c1", "stereo": "centres undefined", "Mtb heat-shock": -2.95}
{"structure": "CC(CCNC(=O)N(C)CC1CCOCC1)N1CCCCC1", "stereo": "centres undefined", "Mtb heat-shock": 3.736}
{"structure": "CN(C)C(=O)c1ccc(C2CCCNC2)nc1.Cl.Cl", "stereo": "centres undefined", "Mtb growth Cornell": -1.375, "Mtb heat-shock": -1.586}
{"structure": "Cc1nnc(C2Cc3ccccc3CN2Cc2ncc(Cl)n2C)o1", "stereo": "centres undefined", "Mtb growth Cornell": -18.28, "Mtb heat-shock": -29.71}
{"structure": "Cn1cnc2cc(C(=O)N3CCC(c4ccccc4C(=O)O)C3)cnc21", "stereo": "centres undefined", "Mtb growth Cornell": -12.4, "Mtb heat-shock": 6.576}
{"structure": "CNC(=O)c1ccc(C2CN(C(=O)c3cncs3)CCO2)nc1", "stereo": "centres undefined", "Mtb growth Cornell": 0.3843, "Mtb heat-shock": -9.507}
{"structure": "FC(F)(F)Cn1ccnc1CN1CCCC1c1noc(C2CC2)n1", "stereo": "centres undefined", "Mtb heat-shock": 9.082}
{"structure": "[H][C@@]12CCCO[C@]1([H])[C@H](OCC1CC1)CN2Cc1scnc1C", "Mtb growth Cornell": 9.733, "Mtb heat-shock": 14.62}
{"structure": "Cc1cc(C(=O)N2CCCC(N3CCCCCC3)C2)nn1C(C)(C)C", "stereo": "centres undefined", "Mtb growth Cornell": 14.3, "Mtb heat-shock": 4.858}
{"structure": "CN(C)C(=O)c1ccc(C2CCCN2C(=O)c2cccc3c2OCC3)s1", "stereo": "centres undefined", "Mtb growth Cornell": 13.76, "Mtb heat-shock": 9.325}
{"structure": "Cc1ccc(CNC(=O)N2CCN(C(C)c3cccnc3)CC2)cn1", "stereo": "centres undefined", "Mtb growth Cornell": -15.39, "Mtb heat-shock": 0.8673}
{"structure": "CN1CCCCC1CCC(=O)NCCSc1cnn[nH]1", "stereo": "centres undefined", "Mtb heat-shock": -3.701}
{"structure": "Cc1ccccc1C(=O)NCc1ccnc(N(C)C)c1", "Mtb heat-shock": -6.776}
{"structure": "CN1CC[C@]2(CN(CC3CCOCC3)C[C@H]2c2ccccc2)C1=O.O=C(O)C(F)(F)F", "Mtb growth Cornell": 7.857, "Mtb heat-shock": -4.772}
{"structure": "COc1c(CNC(c2ccccc2)c2nccn2C)c(C)nn1C", "stereo": "centres undefined", "Mtb heat-shock": -17.9}

3 of the entries, repeated:

| structure | Mtb growth Cornell | Mtb heat-shock |
|---|---|---|
| `O=C(Cn1cc(C2CC2)nn1)NC(c1cc(F)ccc1F)C1CC1` (centres undefined) | -1.995 | 1.09 |
| `Cc1cc2cc(C(=O)N[C@@H]3CC[C@@H](N4CCCC4)[C@@H]3O)ccc2o1` | - | -18.56 |
| `Cc1nnc(C2Cc3ccccc3CN2Cc2ncc(Cl)n2C)o1` (centres undefined) | -18.28 | -29.71 |

Data taken from ChEMBL document CHEMBL3988442, “University of Dundee, Small-Polar-MMV Screening Library” (2021).